This is an account of results in PMC4658663.

Protein sequences, listed by entry. Tags and fused reporters are not part of them.
UniProt P25024: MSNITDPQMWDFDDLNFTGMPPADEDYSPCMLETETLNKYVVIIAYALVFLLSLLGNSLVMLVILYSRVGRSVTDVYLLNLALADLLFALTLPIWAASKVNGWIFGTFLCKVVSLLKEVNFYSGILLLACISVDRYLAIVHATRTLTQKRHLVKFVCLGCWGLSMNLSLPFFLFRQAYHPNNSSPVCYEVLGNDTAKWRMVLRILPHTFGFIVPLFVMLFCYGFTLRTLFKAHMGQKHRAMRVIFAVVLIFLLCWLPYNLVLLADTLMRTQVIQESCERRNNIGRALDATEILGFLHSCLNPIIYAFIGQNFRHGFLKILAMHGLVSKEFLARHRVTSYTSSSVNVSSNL
UniProt P18089: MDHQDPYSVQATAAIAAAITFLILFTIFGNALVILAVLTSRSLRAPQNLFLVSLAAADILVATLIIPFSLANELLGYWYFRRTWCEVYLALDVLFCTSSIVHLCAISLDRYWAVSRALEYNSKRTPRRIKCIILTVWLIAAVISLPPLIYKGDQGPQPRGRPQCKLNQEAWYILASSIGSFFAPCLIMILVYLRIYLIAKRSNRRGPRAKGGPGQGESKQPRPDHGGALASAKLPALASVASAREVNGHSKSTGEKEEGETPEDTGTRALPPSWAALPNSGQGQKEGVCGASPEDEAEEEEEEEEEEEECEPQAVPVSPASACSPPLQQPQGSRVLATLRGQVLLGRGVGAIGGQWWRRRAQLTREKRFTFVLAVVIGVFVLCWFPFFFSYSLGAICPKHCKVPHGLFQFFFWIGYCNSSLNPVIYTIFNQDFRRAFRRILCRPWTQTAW
UniProt P28223: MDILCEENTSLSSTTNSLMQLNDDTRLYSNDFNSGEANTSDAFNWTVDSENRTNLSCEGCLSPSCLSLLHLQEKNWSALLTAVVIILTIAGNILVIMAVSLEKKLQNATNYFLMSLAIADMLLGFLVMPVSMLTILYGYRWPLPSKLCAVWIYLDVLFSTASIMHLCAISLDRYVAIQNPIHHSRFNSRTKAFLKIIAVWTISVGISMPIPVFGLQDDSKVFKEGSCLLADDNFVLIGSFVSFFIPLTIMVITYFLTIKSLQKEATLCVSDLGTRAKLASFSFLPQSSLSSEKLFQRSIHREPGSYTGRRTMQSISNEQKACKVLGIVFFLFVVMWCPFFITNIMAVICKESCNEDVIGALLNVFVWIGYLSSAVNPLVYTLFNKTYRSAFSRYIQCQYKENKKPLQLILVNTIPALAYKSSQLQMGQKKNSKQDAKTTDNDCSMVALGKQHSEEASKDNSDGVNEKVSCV
UniProt Q9NS75: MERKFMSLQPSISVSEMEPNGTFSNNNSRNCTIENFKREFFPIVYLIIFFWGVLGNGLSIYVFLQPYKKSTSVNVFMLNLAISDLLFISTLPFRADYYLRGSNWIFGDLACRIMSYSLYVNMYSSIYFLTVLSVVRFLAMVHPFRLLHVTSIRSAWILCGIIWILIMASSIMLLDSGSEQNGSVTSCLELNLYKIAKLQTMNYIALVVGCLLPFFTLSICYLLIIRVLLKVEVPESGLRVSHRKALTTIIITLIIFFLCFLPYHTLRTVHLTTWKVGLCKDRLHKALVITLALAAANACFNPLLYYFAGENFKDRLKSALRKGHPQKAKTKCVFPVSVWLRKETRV
UniProt O95136: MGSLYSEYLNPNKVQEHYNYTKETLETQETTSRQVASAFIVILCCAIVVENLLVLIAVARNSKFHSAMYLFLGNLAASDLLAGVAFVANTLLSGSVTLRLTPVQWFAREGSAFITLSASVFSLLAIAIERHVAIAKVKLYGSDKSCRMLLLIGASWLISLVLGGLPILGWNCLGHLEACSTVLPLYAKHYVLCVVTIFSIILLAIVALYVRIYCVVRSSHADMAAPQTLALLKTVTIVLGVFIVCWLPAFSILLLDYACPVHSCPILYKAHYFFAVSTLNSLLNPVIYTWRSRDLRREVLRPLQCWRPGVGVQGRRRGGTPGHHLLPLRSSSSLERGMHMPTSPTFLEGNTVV
UniProt P32745: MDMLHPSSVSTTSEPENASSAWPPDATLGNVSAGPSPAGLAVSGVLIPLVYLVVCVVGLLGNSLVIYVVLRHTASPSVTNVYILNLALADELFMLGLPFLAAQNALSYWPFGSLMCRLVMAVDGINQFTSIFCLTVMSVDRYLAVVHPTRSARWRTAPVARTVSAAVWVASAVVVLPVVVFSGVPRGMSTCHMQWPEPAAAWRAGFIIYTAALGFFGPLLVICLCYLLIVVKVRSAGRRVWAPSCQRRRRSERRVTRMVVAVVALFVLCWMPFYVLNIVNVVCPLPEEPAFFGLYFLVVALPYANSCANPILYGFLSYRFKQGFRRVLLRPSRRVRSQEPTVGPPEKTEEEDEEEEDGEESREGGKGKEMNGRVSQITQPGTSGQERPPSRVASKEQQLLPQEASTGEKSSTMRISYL
UniProt P32302: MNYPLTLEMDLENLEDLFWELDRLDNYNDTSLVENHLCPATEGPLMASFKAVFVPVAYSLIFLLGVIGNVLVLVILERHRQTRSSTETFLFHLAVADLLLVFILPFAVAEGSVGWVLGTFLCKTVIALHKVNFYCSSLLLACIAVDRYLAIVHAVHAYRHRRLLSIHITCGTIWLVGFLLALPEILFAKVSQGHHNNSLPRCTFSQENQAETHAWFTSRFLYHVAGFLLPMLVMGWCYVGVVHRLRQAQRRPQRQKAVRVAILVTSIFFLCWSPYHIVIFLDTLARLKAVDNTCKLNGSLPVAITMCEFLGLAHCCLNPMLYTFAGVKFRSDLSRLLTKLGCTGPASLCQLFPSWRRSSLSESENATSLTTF
UniProt P46939: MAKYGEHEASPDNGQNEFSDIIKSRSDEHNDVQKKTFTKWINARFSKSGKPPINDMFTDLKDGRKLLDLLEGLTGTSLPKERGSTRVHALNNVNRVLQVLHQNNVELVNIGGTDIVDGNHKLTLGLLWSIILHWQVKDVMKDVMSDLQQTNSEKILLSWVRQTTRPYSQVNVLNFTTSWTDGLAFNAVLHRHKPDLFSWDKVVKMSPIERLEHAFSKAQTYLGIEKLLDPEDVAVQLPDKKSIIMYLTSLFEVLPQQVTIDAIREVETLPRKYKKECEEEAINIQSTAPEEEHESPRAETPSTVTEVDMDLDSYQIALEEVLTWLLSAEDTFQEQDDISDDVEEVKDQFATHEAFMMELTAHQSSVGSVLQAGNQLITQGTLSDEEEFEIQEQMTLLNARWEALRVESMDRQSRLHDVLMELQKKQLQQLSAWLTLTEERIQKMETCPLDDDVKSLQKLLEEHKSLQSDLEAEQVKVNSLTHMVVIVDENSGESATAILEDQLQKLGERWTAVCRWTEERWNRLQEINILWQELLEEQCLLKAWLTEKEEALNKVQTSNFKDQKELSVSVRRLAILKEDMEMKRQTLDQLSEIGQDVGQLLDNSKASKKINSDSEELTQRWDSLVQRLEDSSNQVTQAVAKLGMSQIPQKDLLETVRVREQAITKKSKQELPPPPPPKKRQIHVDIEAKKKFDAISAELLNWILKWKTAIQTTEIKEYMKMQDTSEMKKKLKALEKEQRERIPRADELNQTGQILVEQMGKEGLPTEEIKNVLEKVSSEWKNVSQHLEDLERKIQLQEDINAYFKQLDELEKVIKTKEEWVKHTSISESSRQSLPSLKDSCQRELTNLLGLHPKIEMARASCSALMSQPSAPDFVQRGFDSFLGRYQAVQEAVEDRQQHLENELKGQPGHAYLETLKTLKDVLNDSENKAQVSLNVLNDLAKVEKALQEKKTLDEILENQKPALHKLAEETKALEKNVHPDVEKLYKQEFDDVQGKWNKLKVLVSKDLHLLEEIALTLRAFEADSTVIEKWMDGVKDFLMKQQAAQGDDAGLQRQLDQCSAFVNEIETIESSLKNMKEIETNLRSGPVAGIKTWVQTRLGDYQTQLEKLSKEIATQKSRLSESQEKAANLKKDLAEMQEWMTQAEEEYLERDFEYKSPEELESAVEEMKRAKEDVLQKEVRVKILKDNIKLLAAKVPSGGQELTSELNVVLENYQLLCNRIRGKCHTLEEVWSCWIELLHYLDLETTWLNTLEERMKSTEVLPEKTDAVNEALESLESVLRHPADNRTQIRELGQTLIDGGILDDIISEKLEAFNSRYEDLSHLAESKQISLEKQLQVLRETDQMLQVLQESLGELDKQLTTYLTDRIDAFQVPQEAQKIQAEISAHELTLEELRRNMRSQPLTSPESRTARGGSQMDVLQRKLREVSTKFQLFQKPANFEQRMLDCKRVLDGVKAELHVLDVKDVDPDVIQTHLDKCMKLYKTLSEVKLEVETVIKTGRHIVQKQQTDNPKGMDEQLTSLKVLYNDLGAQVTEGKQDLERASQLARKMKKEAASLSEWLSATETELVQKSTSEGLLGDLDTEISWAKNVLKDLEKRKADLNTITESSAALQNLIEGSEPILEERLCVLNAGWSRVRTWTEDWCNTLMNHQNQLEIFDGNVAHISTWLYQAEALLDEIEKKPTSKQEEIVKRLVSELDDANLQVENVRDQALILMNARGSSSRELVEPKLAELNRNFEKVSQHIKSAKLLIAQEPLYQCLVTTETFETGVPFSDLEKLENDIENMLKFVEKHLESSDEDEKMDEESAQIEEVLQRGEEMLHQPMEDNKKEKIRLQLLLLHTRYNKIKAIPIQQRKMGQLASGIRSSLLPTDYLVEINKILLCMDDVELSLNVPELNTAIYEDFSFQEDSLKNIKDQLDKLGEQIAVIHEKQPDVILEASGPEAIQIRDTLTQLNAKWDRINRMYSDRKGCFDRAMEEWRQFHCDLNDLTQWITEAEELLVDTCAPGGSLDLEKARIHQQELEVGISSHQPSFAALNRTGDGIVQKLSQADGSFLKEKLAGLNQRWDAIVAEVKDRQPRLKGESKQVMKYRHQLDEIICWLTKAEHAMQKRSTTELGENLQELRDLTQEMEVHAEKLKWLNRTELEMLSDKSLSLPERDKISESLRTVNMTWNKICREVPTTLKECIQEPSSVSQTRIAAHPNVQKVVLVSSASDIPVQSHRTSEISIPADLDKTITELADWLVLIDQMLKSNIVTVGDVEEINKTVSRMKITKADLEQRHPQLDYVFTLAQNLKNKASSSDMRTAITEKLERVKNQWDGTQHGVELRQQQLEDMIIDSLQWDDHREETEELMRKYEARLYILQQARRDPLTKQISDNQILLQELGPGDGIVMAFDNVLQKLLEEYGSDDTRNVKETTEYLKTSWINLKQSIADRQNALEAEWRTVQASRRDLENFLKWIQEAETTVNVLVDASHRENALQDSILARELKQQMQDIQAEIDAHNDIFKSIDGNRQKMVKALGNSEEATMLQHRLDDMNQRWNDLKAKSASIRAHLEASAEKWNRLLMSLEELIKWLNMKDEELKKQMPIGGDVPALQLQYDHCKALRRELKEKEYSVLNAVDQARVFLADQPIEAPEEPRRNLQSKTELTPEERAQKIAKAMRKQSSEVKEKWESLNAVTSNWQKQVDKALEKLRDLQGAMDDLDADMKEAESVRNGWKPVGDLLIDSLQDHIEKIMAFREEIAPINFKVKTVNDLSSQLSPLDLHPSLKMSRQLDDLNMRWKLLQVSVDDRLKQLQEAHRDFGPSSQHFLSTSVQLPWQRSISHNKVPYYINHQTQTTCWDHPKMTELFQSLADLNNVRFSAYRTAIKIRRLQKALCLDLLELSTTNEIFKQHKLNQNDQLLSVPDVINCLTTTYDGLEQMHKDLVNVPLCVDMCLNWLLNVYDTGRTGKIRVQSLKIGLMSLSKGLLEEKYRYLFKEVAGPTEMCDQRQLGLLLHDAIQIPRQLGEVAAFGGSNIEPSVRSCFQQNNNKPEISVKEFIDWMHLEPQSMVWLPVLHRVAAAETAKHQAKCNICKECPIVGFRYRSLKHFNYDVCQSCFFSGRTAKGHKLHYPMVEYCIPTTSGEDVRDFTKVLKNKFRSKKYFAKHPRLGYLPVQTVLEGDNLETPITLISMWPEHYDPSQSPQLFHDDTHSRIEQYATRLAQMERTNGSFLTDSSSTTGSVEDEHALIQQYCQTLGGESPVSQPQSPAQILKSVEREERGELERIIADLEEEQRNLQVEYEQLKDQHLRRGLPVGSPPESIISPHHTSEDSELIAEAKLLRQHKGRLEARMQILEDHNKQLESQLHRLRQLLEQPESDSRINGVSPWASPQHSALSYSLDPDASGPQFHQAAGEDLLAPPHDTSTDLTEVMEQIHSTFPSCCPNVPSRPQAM

Assay [1] concerns the target TAP–ADRA1D (human) (UniProt P25100). Nature of the assay: affinity purification with mass spectrometry; TAP/MS; TAP–ADRA1D transfected in SW480 cells.
The target is the same in assay [2]. Nature of the assay: affinity purification with mass spectrometry; TAP/MS; TAP–ADRA1D transfected in MCF-7 cells.
Assay [3] deals with CXCR1 (chemokine receptor), TAP-tagged (human) (UniProt P25024). Nature of the assay: affinity purification with mass spectrometry; TAP/MS; TAP-tagged bait transfected alone (or with empty vector) in HEK293T cells; TEV cleavage omitted; eluates on Velos-Pro Orbitrap Elite; protein FDR 2.5%.
In assay [4] the target is ADRA2B (α2B-adrenergic receptor), TAP-tagged (human) (UniProt P18089). Described as above.
Assay [5] deals with HTR2A (5-hydroxytryptamine type 2A receptor), TAP-tagged (human) (UniProt P28223). The assay is described as above.
In assay [6] the target is CYSLTR2 (cysteinyl leukotriene 2 receptor), TAP-tagged (human) (UniProt Q9NS75). The assay is described as above.
Assay [7] concerns the target T1, C3AR1 (C3a anaphylatoxin chemotactic receptor), TAP-tagged (human) (UniProt Q16581).
T1 sequence: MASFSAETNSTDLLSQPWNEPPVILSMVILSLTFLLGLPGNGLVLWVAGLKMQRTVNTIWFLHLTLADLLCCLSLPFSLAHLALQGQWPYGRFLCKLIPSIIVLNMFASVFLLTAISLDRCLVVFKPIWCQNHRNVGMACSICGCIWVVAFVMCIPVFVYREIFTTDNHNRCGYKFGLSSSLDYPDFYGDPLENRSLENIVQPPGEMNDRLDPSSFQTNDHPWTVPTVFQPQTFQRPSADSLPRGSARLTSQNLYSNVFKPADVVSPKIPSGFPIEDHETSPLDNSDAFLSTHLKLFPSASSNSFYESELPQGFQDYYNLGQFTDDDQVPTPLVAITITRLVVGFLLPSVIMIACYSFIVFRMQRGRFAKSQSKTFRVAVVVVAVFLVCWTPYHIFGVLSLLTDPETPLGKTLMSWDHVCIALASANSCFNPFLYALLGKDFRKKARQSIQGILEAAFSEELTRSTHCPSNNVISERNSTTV
Described as above.

In assay [8] the target is S1PR2 (sphingosine-1-phosphate type 2 receptor), TAP-tagged (human) (UniProt O95136). Described as above.
Assay [9] addresses SSTR3 (somatostatin receptor 3), TAP-tagged (human) (UniProt P32745). The description is as above.
Assay [10] concerns the target CXCR5 (chemokine receptor), TAP-tagged (human) (UniProt P32302). Described as above.
In assay [11] the target is TAP–ADRA1D (human) (UniProt P25100). Nature of the assay: affinity purification with mass spectrometry; TAP/MS; TAP–ADRA1D transfected in A375 cells.
The target is the same in assay [12]. Nature of the assay: affinity purification with mass spectrometry; TAP/MS; TAP–ADRA1D transfected in A549 cells.
Assay [13] has the same target. Nature of the assay: affinity purification with mass spectrometry; TAP/MS; TAP–ADRA1D transfected in HeLa cells.

These are yes or no findings as the source states them, for the method shown. In cells and extracts the contact can be indirect. These calls come from enrichment with a bait or labelling near it, and not all partners need be listed. For some assays here: No binding means not detected with the bait. For some assays here: Tags and fused reporters may be left off the sequences shown.

SNTB2 (from UniProt Q13425 1-540): the binding entry is “binds” in the assay with TAP–ADRA1D (human) [1]; “binds” in the assay with TAP–ADRA1D (human) [2]; “no binding” in assay [3]; “no binding” in assay [4]; “no binding” in [5]; “no binding” in assay [6]. The binding result is on record as “no binding” in assay [7]; “no binding” in assay [8]; “no binding” in [9]; “no binding” in assay [10]; “binds” with TAP–ADRA1D (human) [11]; “binds” with TAP–ADRA1D (human) [12]. The binding result with TAP–ADRA1D (human) [13] is “binds”.
With “dystrophin (DMD) (from UniProt P11532 1-3685)”, the binding entry in the assay with TAP–ADRA1D (human) [2] is reported as “binds”; in assay [3], “no binding”; in [4], “no binding”; in [5], “no binding”; in assay [6], “no binding”; in assay [7], “no binding”. Moreover, the binding entry in [8] is “no binding”; in assay [9], “no binding”; in assay [10] it was “no binding”; with TAP–ADRA1D (human) [11], “binds”; with TAP–ADRA1D (human) [12] it was “binds”.
Regarding “utrophin (UTRN) (from UniProt P46939 1-3433)”, the binding entry with TAP–ADRA1D (human) [1] was “binds”; with TAP–ADRA1D (human) [2], “binds”; in assay [3], “no binding”; in assay [4], “no binding”; in [5], “no binding”; in [6], “no binding”. For the same molecule, the binding entry in [7] was “no binding”; in [8], “no binding”; in assay [9], “no binding”; in assay [10], “no binding”; with TAP–ADRA1D (human) [11], “binds”; in the assay with TAP–ADRA1D (human) [12], “binds”. The binding entry in the assay with TAP–ADRA1D (human) [13] was “binds”.

B1: SNTB1 (protein, UniProt Q13884 1-538)
chain: MAVAAAAAAAGPAGAGGGRAQRSGLLEVLVRDRWHKVLVNLSEDALVLSSEEGAAAYNGIGTATNGSFCRGAGAGHPGAGGAQPPDSPAGVRTAFTDLPEQVPESISNQKRGVKVLKQELGGLGISIKGGKENKMPILISKIFKGLAADQTQALYVGDAILSVNGADLRDATHDEAVQALKRAGKEVLLEVKYMREATPYVKKGSPVSEIGWETPPPESPRLGGSTSDPPSSQSFSFHRDRKSIPLKMCYVTRSMALADPENRQLEIHSPDAKHTVILRSKDSATAQAWFSAIHSNVNDLLTRVIAEVREQLGKTGIAGSREIRHLGWLAEKVPGESKKQWKPALVVLTEKDLLIYDSMPRRKEAWFSPVHTYPLLATRLVHSGPGKGSPQAGVDLSFATRTGTRQGIETHLFRAETSRDLSHWTRSIVQGCHNSAELIAEISTACTYKNQECRLTIHYENGFSITTEPQEGAFPKTIIQSPYEKLKMSSDDGIRMLYLDFGGKDGEIQLDLHSCPKPIVFIIHSFLSAKITRLGLVA
In the case of B1, the binding result with TAP–ADRA1D (human) [1] was “binds”; in assay [3] it was “no binding”; in assay [4] it was “no binding”; in assay [5] it was “no binding”; in assay [6], “no binding”; in assay [8], “no binding”. The binding entry in assay [9] is “no binding”; in assay [10], “no binding”; with TAP–ADRA1D (human) [13], “binds”.

B2: dystrobrevin-A (DTNA) (protein, UniProt Q9Y4J8 1-743)
chain: MIEDSGKRGNTMAERRQLFAEMRAQDLDRIRLSTYRTACKLRFVQKKCNLHLVDIWNVIEALRENALNNLDPNTELNVSRLEAVLSTIFYQLNKRMPTTHQIHVEQSISLLLNFLLAAFDPEGHGKISVFAVKMALATLCGGKIMDKLRYIFSMISDSSGVMVYGRYDQFLREVLKLPTAVFEGPSFGYTEQSARSCFSQQKKVTLNGFLDTLMSDPPPQCLVWLPLLHRLANVENVFHPVECSYCHSESMMGFRYRCQQCHNYQLCQDCFWRGHAGGSHSNQHQMKEYTSWKSPAKKLTNALSKSLSCASSREPLHPMFPDQPEKPLNLAHIVDTWPPRPVTSMNDTLFSHSVPSSGSPFITRSSPPKDSEVEQNKLLARAAPAFLKGKGIQYSLNVADRLADEHVLIGLYVNMLRNNPSCMLESSNRLDEEHRLIARYAARLAAESSSSQPPQQRSAPDISFTIDANKQQRQLIAELENKNREILQEIQRLRLEHEQASQPTPEKAQQNPTLLAELRLLRQRKDELEQRMSALQESRRELMVQLEGLMKLLKTQGAGSPRSSPSHTISRPIPMPIRSASACSTPTHTPQDSLTGVGGDVQEAFAQSSRRNLRNDLLVAADSITNTMSSLVKELNSEVGSETESNVDSEFARTQFEDLVPSPTSEKAFLAQIHARKPGYIHSGATTSTMRGDMVTEDADPYVQPEDENYENDSVRQLENELQMEEYLKQKLQDEAYQVSLQG
For B2, the binding result in the assay with TAP–ADRA1D (human) [1] is on record as “binds”; with TAP–ADRA1D (human) [2] it was “binds”; in assay [3] it was “no binding”; in assay [4], “no binding”; in assay [5], “no binding”; in assay [6], “no binding”. Also, the binding entry in [7] is “no binding”; in [8], “no binding”; in assay [9] it was “no binding”; in assay [10] it was “no binding”; with TAP–ADRA1D (human) [11], “binds”; with TAP–ADRA1D (human) [13], “binds”.

B3: α-catulin (CTNNAL1) (protein, UniProt Q9UBT7 1-734)
chain: MAASPGPAGVGGAGAVYGSGSSGFALDSGLEIKTRSVEQTLLPLVSQITTLINHKDNTKKSDKTLQAIQRVGQAVNLAVGRFVKVGEAIANENWDLKEEINIACIEAKQAGETIAALTDITNLNHLESDGQITIFTDKTGVIKAARLLLSSVTKVLLLADRVVIKQIITSRNKVLATMERLEKVNSFQEFVQIFSQFGNEMVEFAHLSGDRQNDLKDEKKKAKMAAARAVLEKCTMMLLTASKTCLRHPNCESAHKNKEGVFDRMKVALDKVIEIVTDCKPNGETDISSISIFTGIKEFKMNIEALRENLYFQSKENLSVTLEVILERMEDFTDSAYTSHEHRERILELSTQARMELQQLISVWIQAQSKKTKSIAEELELSILKISHSLNELKKELHSTATQLAADLLKYHADHVVLKALKLTGVEGNLEALAEYACKLSEQKEQLVETCRLLRHISGTEPLEITCIHAEETFQVTGQQIISAAETLTLHPSSKIAKENLDVFCEAWESQISDMSTLLREINDVFEGRRGEKYGYLSLPKPMKNNANLKSLKPDKPDSEEQAKIAKLGLKLGLLTSDADCEIEKWEDQENEIVQYGRNMSSMAYSLYLFTRGEGPLKTSQDLIHQLEVFAAEGLKLTSSVQAFSKQLKDDDKLMLLLEINKLIPLCHQLQTVTKTSLQNKVFLKVDKCITKTRSMMALLVQLLSLCYKLLKKLQMENNGWVSVTNKDTMDSKT
Regarding B3, the binding result in the assay with TAP–ADRA1D (human) [1] was “binds”; in assay [3], “no binding”; in assay [4] it was “no binding”; in assay [5] it was “no binding”; in assay [6], “no binding”; in assay [7], “no binding”. Further, the binding result in assay [8] was “no binding”; in assay [9] it was “no binding”; in [10], “no binding”; with TAP–ADRA1D (human) [13], “binds”.
